Holding throughout (test): log relative Renilla luciferase luminescence (reporter expression vs reference, reference not stated) (log (base not stated)); higher = higher recombinant reporter expression
Common to all, as to conditions: 10 µM; time after transfection 48 h

The test system of assay [1] is HEK 293FT.
In assay [2] the test system is HEK 293FT. As to the method:
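HEK 293FT cells transiently transfected with pRL-TK (Renilla luciferase) were treated with compounds at 10 uM and luminescence was read about 42 h later. Values are log relative Renilla luminescence (log base and reference not stated). Single-pass screen; 2080 natural products library.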
The source holds these as a separate data set.

In assay [3] the test system is HEK 293FT. This is another data set of the same source.

SMILES strings stand for the structures. Counter-ions that a name gives are not always drawn. The list shows a part of the results. This data set is noisy: repeats of one test often differ as much as different tests do.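 Human embryonic kidney cells were transiently transfected with a plasmid bearing a Renilla luciferase gene under the HSV-TK promoter. This first-round screen tests roughly ten thousand compounds for ones that increase reporter output.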

As for `NC(=O)N1c2ccccc2CCc2ccccc21` [Dihydrocarbamazepine], the log in the assay with HEK 293FT [1] is -0.632.

In the case of `Cc1cc(O)c2c3c4c(cc(O)c13)C(C)(C)C(=O)c1c(O)cc(O)c(c1-4)C2=O` [Heliomycin], the log in the assay on HEK 293FT [1] was 0.056.

On to `O=C(N/N=C/c1ccc2c(c1)OCO2)c1ccncc1` [Piperazide], for which, in the assay on HEK 293FT [1], the log is -0.0538.

In the case of `CC(C)c1nc(CN(C)C(=O)N[C@H](C(=O)N[C@@H](Cc2ccccc2)C[C@H](O)[C@H](Cc2ccccc2)NC(=O)OCc2cncs2)C(C)C)cs1` [Ritonavir], the log with HEK 293FT [1] amounted to 0.0234.

Turning to `CCCc1nn(C)c2c(=O)[nH]c(-c3cc(S(=O)(=O)N4CCN(C)CC4)ccc3OCC)nc12` [Sildenafil Citrate], in the assay on HEK 293FT [1], the log was -0.29.

For the compound `O=C1OC(c2ccc(O)cc2)(c2ccc(O)cc2)c2ccccc21` [Phenolphthalein], in the assay on HEK 293FT [1], the log came out at 0.081.

With `Cc1ccc(C(C)C)cc2c(C)ccc1-2` [Guaiazulene], in the assay on HEK 293FT [1], the log amounted to 0.04.

Regarding `O=C1CN(CCN2CC(=O)NC(=O)C2)CC(=O)N1`, the log in the assay on HEK 293FT [1] was -0.289.

With `COc1ccnc(C[S+]([O-])c2nc3cc(OC(F)F)ccc3[nH]2)c1OC` (stereo not given) [Pantoprazole Sodium], in the assay with HEK 293FT [1], the log was -0.748.

Consider `O=C(N/N=C/c1ccccc1O)c1ccncc1` [Salinazid], for which, in the assay on HEK 293FT [1], the log is -0.0525.

Take `CC/C=C\CC1=C(C)CCC1=O` [Jasmone]: in the assay with HEK 293FT [1], the log was 0.0999.

Take `Cn1c(=O)c2c(nc(Br)n2C)n(C)c1=O` [Xanthobine]: the log in the assay with HEK 293FT [1] turned out to be 0.0486.

Regarding `NNC(=O)CP(=O)(c1ccccc1)c1ccccc1` [Fosenazide], in the assay with HEK 293FT [1], the log is -0.0558.

For the compound `CCCS(=O)(=O)c1ccc2nc(NC(=O)OC)[nH]c2c1` [Albendazole sulfone], the log with HEK 293FT [1] amounted to 0.139.

For the compound `CC(O)(P(=O)(O)O)P(=O)(O)O` [Etidronate], the log with HEK 293FT [1] was -0.0586.

For the compound `CC(=O)OCC(=O)[C@@]1(O)CC[C@H]2[C@@H]3CCC4=CC(=O)C=C[C@]4(C)[C@H]3C(=O)C[C@@]21C` [Prednisone acetate], the log with HEK 293FT [1] came out at 0.00722.

Consider `O=c1[nH]c(=O)n([C@H]2C[C@H](O)[C@@H](CO)O2)cc1Br` [Broxuridine], for which the log in the assay on HEK 293FT [1] came to 0.227.

With `CC1=C(C(=O)O)N2C(=O)[C@@H](NC(=O)[C@H](N)c3ccc(O)cc3)[C@H]2SC1` [Cefadroxil], in the assay on HEK 293FT [1], the log is 0.166.

As for `CN(C)CCC(c1ccc(Br)cc1)c1ccccn1` (stereo not given) [Brompheniramine Maleate], the log with HEK 293FT [1] is -0.0398.

In the case of `Cn1cnc(Cl)c1[N+](=O)[O-]` [Chlomizol], the log in the assay on HEK 293FT [1] turned out to be 0.0592.

With `CC(C)NCC(O)COc1ccc(CCOCC2CC2)cc1` (stereo not given) [Betaxolol Hydrochloride], in the assay with HEK 293FT [1], the log was -0.0912.

Regarding `Cc1cc(=O)oc2n[nH]c(C)c12`, in the assay with HEK 293FT [1], the log is -0.106.

With `CCOC(=O)c1c(C)n(-c2ccccc2)c2ccc(O)cc12` [Oxyphemedol], the log with HEK 293FT [1] was determined as 0.104.

`O[Si](CCCN1CCCCC1)(c1ccccc1)C1CCCCC1` (stereo not given) [Hexahydrosiladifenidol]: the log with HEK 293FT [1] is 0.0165.

As to `C=C1C(=O)O[C@@H]2C[C@@]3(C)CCC[C@H](C)C3=C[C@H]12` [Helenin], in the assay with HEK 293FT [1], the log was -1.63.

For `O=C(/C=C/c1ccccc1)c1ccccc1` [Chalcone], the log in the assay with HEK 293FT [1] worked out at 0.152.

For the compound `COc1nccnc1NS(=O)(=O)c1ccc(N)cc1` [Sulfalene], the log in the assay with HEK 293FT [1] was 0.0623.

Consider `Nc1nc(NC2CC2)c2ncn([C@H]3C=C[C@@H](CO)C3)c2n1` [Abacavir], for which, in the assay with HEK 293FT [1], the log was -0.338.

`CNC(=C[N+](=O)[O-])NCCSCc1ccc(CN(C)C)o1` [Ranitidine Hydrochloride]: the log with HEK 293FT [1] was -0.215.

As for `O=c1[nH]c(=O)n(C2CCCO2)cc1F` (stereo not given) [Tegafur], the log in the assay on HEK 293FT [1] came to 0.0815.

Regarding `Nc1ccc(/C=C/c2ccc(N)cc2S(=O)(=O)O)c(S(=O)(=O)O)c1` [Amsonate], the log in the assay on HEK 293FT [1] amounted to 0.0245.

Regarding `Cc1cc2nc3c(=O)[nH]c(=O)nc-3n(C[C@H](O)[C@H](O)[C@H](O)CO)c2cc1C` [Riboflavin], the log in the assay on HEK 293FT [1] is 0.123.

With `COc1ccc(-n2c(C)c(C(C)=O)c3cc(O)ccc32)cc1` [Amendol], the log in the assay with HEK 293FT [1] amounted to 0.112.

As for `O=C1c2ccccc2C(=O)c2c1ccc(O)c2O` [Alizarin], the log in the assay on HEK 293FT [1] is -0.0545.

Take `OCCc1c[nH]c2ccccc12` [Tryptophol]: the log with HEK 293FT [1] amounted to 0.0301.

As for `N#Cc1c2c(c(Nc3ccc(F)cc3)n3c1nc1ccccc13)CCCC2`, the log in the assay on HEK 293FT [1] came to 0.121.

As for `O=C(O)CCc1nc2ccccc2[nH]1` [Procodazole], the log in the assay on HEK 293FT [1] turned out to be 0.0684.

With `Cc1cc(O)c2c(c1)C(=O)c1cc(O)cc(O)c1C2=O` [Emodin], the log in the assay with HEK 293FT [2] is 0.11.

On to `COc1ccc(/C=C/C(=O)O)cc1O` [Isoferulic acid], for which the log in the assay on HEK 293FT [2] is -0.0776.

For the compound `CC(=O)CCCCn1c(=O)c2c(ncn2C)n(C)c1=O` [Pentoxifylline], in the assay on HEK 293FT [3], the log is -0.22.
